{
  "source": "paper PMC8220078",
  "binders": {"B1": {"name": "Leucine aminopeptidase 2 (LAP2), pGADT7 two-hybrid fusion (protein, UniProt Q944P7 1-583)", "chain": "MAVTLVTSFASSSSRFHFRSFSSSPSSLSSCFVRFQFPSRLRLAFAVTPLYSSSRAMAHTISHATLGLTQANSVDHPKISFSGKEIDVTEWKGDILAVGVTEKDMAKDVNSKFENPILKKLDAHLGGLLADVSSEEDFSGKPGQSTVLRLPGLGSKRVGLIGLGKSASTPSAFQSLGEAVAAAAKASQASSVAVVLASSESVSNESKLCSASAIASGTVLGLFEDSRYKSESKKPSLKSVDIIGFGSGPELEKKLKYAEHVSYGVIFGKELVNSPANVLTPAVLAEEALNLASMYSDVMTANILNEEQCKELKMGSYLAVAAASANPPHFIHLIYKPSSGPVKTKLALVGKGLTFDSGGYNIKTGPGCLIELMKFDMGGSAAVLGAAKAIGQIKPPGVEVHFIVAACENMISGTGMRPGDVLTASNGKTIEVNNTDAEGRLTLADALVYACNQGVDKVVDLATLTGACIIALGTSMAGIYTPSDKLAKEVIAASERSGEKLWRMPMEESYWEMMKSGVADMVNTGGRAGGSITAALFLKQFVSEDVEWMHIDMAGPVWNEKKKAATGFGVATLVEWVQNHSSS"}, "B2": {"name": "CAT2-Flag (35S:CAT2-Flag) (protein, UniProt P25819 1-492)", "chain": "MDPYKYRPASSYNSPFFTTNSGAPVWNNNSSMTVGPRGPILLEDYHLVEKLANFDRERIPERVVHARGASAKGFFEVTHDISNLTCADFLRAPGVQTPVIVRFSTVIHERGSPETLRDPRGFAVKFYTREGNFDLVGNNFPVFFIRDGMKFPDMVHALKPNPKSHIQENWRILDFFSHHPESLNMFTFLFDDIGIPQDYRHMDGSGVNTYMLINKAGKAHYVKFHWKPTCGVKSLLEEDAIRVGGTNHSHATQDLYDSIAAGNYPEWKLFIQIIDPADEDKFDFDPLDVTKTWPEDILPLQPVGRMVLNKNIDNFFAENEQLAFCPAIIVPGIHYSDDKLLQTRVFSYADTQRHRLGPNYLQLPVNAPKCAHHNNHHEGFMNFMHRDEEVNYFPSRYDQVRHAEKYPTPPAVCSGKRERCIIEKENNFKEPGERYRTFTPERQERFIQRWIDALSDPRITHEIRSIWISYWSQADKSLGQKLASRLNVRPSI"}, "B3": {"name": "nLUC-CAT2 (protein, UniProt P25819 1-492)", "chain": "B2 chain"}, "B4": {"name": "CAT2-YFPn (35S:CAT2-YFPn) (protein, UniProt P25819 1-492)", "chain": "B2 chain"}},
  "key": {"[1]": {"biological_target": "T1, CAT2 (catalase 2), pGBKT7-CAT2 two-hybrid fusion (Arabidopsis thaliana) (UniProt P25819)", "T1 sequence": "B2 chain", "assay": "two-hybrid; yeast two-hybrid, Matchmaker system (Clontech); LAP2 in pGADT7, CAT2 in pGBKT7"}, "[2]": {"biological_target": "T2, GFP-LAP2 (35S:GFP–LAP2) (Arabidopsis thaliana) (UniProt Q944P7)", "T2 sequence": "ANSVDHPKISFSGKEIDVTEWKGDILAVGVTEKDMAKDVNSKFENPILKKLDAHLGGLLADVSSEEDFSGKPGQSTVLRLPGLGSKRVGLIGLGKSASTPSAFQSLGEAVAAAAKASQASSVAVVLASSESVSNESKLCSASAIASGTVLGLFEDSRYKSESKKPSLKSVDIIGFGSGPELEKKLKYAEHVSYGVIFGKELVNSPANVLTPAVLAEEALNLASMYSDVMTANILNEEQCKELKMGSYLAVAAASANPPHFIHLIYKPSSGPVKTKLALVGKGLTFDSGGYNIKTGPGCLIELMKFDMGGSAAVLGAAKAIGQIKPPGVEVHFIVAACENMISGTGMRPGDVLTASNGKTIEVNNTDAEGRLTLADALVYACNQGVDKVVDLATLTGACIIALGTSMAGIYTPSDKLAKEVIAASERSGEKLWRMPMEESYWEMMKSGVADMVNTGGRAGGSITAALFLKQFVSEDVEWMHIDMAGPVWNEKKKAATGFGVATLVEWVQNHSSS", "assay": "co-IP; 35S:GFP-LAP2 and 35S:CAT2-Flag co-expressed in N. benthamiana leaves for 3 days; total proteins immunoprecipitated with gel-conjugated anti-GFP mAb, immunoblotted with anti-Flag"}, "[3]": {"biological_target": "T3, cLUC-LAP2 (Arabidopsis thaliana) (UniProt Q944P7)", "T3 sequence": "T2 sequence", "assay": "split reporter; luciferase complementation imaging (LCI); nLUC-CAT2 and cLUC-LAP2 co-expressed in N. benthamiana leaves, 3 days after infiltration, D-luciferin"}, "[4]": {"biological_target": "T4, LAP2-YFPc (35S:LAP2-YFPc) (Arabidopsis) (UniProt Q944P7)", "T4 sequence": "T2 sequence", "assay": "split reporter; BiFC; CAT2-YFPn and LAP2-YFPc expressed in N. benthamiana leaves, 3 days after infiltration, confocal microscopy"}},
  "note": "No constants are given. Whether binding was seen depends on the method and setting. For some of these results: Binding seen in cells or lysates may run through a third protein. Some entries that bind do so weakly or less than the wild type. For some of these results: Sequences can lack the tags named with a protein.",
  "data": [
    {"binder": "B1", "values": [
      {"measurement": "binding", "setting": "[1]", "value": "binds"}
    ]},
    {"binder": "B2", "values": [
      {"measurement": "binding", "setting": "[2]", "value": "binds"}
    ]},
    {"binder": "B3", "values": [
      {"measurement": "binding", "setting": "[3]", "value": "binds"}
    ]},
    {"binder": "B4", "values": [
      {"measurement": "binding", "setting": "[4]", "value": "binds"}
    ]}
  ]
}
